From US20200079855A1 (Pfizer, published 2020)
Results are given in words; binding and its absence hold for the method and conditions named. Some entries that bind do so weakly or less than the wild type.

Protein sequences, listed by entry. Tags and fused reporters are not part of them. Lines headed by an entry give the natural chain unless they say otherwise; changes in a name come on top.
UniProt P43406: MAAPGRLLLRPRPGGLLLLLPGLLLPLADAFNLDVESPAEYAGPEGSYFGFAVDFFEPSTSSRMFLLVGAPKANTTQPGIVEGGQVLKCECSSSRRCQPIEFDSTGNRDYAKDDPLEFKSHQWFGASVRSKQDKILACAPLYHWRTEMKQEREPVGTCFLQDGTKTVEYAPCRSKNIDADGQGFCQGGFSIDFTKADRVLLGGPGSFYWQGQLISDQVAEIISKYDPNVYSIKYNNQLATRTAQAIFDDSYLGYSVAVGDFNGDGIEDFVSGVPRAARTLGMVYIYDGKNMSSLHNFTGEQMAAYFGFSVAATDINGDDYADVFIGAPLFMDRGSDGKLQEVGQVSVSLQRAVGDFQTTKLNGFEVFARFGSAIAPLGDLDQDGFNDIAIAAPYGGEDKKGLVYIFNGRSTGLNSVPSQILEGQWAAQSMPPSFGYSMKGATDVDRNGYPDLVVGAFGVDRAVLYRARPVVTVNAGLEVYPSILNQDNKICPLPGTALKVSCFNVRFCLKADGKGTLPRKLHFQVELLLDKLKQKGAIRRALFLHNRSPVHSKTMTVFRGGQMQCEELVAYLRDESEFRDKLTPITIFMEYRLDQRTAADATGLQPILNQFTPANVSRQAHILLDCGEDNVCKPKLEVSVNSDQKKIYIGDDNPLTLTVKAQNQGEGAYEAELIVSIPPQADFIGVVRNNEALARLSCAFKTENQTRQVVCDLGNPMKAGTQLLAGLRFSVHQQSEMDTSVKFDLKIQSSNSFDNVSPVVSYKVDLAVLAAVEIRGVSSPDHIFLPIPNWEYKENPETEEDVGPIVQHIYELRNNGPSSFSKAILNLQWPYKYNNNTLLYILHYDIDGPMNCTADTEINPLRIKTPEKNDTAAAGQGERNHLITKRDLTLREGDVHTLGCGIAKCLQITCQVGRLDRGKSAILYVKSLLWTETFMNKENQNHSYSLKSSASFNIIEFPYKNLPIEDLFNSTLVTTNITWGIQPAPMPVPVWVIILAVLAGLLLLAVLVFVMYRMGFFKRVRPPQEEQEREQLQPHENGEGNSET
UniProt Q0VBD0: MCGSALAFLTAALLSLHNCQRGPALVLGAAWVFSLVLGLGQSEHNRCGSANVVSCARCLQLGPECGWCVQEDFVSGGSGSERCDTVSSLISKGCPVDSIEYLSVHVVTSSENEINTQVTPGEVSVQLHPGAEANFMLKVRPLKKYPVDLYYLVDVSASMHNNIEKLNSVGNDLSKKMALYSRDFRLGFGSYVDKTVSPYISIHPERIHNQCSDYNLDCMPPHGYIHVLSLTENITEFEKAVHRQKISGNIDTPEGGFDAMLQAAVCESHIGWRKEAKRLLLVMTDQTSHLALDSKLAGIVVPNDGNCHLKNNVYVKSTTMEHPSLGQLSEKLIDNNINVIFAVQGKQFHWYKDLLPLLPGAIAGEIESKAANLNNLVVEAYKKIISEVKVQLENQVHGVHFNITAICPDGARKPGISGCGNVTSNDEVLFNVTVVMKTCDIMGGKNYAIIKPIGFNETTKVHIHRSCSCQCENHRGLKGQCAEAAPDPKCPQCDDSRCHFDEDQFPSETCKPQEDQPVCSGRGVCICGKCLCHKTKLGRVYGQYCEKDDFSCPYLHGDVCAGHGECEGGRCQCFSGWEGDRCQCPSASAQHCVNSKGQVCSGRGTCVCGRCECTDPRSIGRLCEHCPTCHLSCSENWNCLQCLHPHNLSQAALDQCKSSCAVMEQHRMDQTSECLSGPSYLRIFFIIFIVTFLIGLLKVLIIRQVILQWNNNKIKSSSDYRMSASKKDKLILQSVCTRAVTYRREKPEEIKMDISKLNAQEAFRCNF

Experiments:
[1] = biological target: mouse αvβ8 integrin on EMT6 cells (mouse) (UniProt P43406+Q0VBD0); test: flow cytometry of the EMT6 cell line, ADWA-11 against isotype staining
[2] = biological target: mouse αvβ8 integrin on CCK168 cells (mouse) (UniProt P43406+Q0VBD0); test: flow cytometry of the CCK168 cell line, ADWA-11 against isotype staining
[3] = biological target: T1, mouse αvβ8 integrin on C8-S cells (mouse, UniProt P43406 31-1044; Q0VBD0 22-767); test: flow cytometry on live cells
[4] = biological target: T1, mouse αvβ8 integrin on C8-S cells; test: flow cytometry on live C8-S cells
[5] = biological target: T2, recombinant mouse αvβ8 integrin (mouse, UniProt P43406 31-988; Q0VBD0 22-681, limits assumed); test: SPR (Biacore), Fab
T2 construct: Recombinant protein immobilised on the Biacore chip

Row | Binder | binding [3] | binding [5] | other results
1 | Mouse hybridoma antibody ADWA-11 (antibody, V domains shown, Whole native murine IgG from the hybridoma; also called mADWA11; mADWA-11) VH: EVQLQQSGAELVRPGAFVKLSCKASGFNIKDYYMNWVLQRPEQGLEWIGWIDPDNGNTIYDPKFQGKASITADTSSNTAYLQLSSLTSEDTAVYYCARRLLMDYWGQGTSVTVSS VL: DIVMTQAAPSVPVTPGESVSISCRSTKSLLHFNGNTYLFWFLQRPGQSPQRLIYYMSNLASGVPDRFSGRGSGTDFTLRISRVEAEDVGVYYCMQSLEYPFTFGTGTKLEIK |  |  | binding [1]: binds; binding [2]: binds
2 | ADWA11 VH05-2/VK01(2.1) antibody (antibody, V domains shown, also called ADWA11 2.1) VH: EVQLVESGGGLVQPGGSLRLSCAASGFNIKDYYMNWVRQAPGKGLEWVGWIDPDQGNTIYEPKFQGRFTISADTSKNSAYLQMNSLRAEDTAVYYCARRLLMDYWGQGTLVTVSS VL: DIQMTQSPSSLSASVGDRVTITCRSTKSLSHFNGNTYLFWYQQKPGKAPKRLIYYMSNLASGVPSRFSGSGSGTDFTLTISSLQPEDFATYYCQQSLEYPFTFGGGTKVEIK | binds |  | 
3 | ADWA11 2.4 (IgG) (antibody, V domains shown, Human IgG1 effectorless (L234A, L235A, G237A), kappa; also called ADWA11 VH05-2/VK01(2.4); ADWA11_VH05-2_VK01(2.4)) VH: EVQLVESGGGLVQPGGSLRLSCAASGFNIKDYYMNWVRQAPGKGLEWVGWIDPDQGNTIYEPKFQGRFTISADTSKNSAYLQMNSLRAEDTAVYYCARRLLMDYWGQGTLVTVSS VL: DIQMTQSPSSLSASVGDRVTITCRSTKSLSHFNGNTYLFWYQQKPGKAPKRLIYYMSSLASGVPSRFSGSGSGTDFTLTISSLQPEDFATYYCQQSLEYPFTFGGGTKVEIKR | binds |  | binding [4]: binds
4 | Mouse hybridoma ADWA-11 Fab (Fab, V domains shown, Fab; also called mFab; Ms ADWA11 Fab) VH: EVQLQQSGAELVRPGAFVKLSCKASGFNIKDYYMNWVLQRPEQGLEWIGWIDPDNGNTIYDPKFQGKASITADTSSNTAYLQLSSLTSEDTAVYYCARRLLMDYWGQGTSVTVSS VL: DIVMTQAAPSVPVTPGESVSISCRSTKSLLHFNGNTYLFWFLQRPGQSPQRLIYYMSNLASGVPDRFSGRGSGTDFTLRISRVEAEDVGVYYCMQSLEYPFTFGTGTKLEIK |  | binds | 
5 | ADWA11 2.4 Fab (Fab, V domains shown, Fab; also called ADWA11 5-2 2.4; ADWA11_5-2 2.4 Fab) VH: EVQLVESGGGLVQPGGSLRLSCAASGFNIKDYYMNWVRQAPGKGLEWVGWIDPDQGNTIYEPKFQGRFTISADTSKNSAYLQMNSLRAEDTAVYYCARRLLMDYWGQGTLVTVSS VL: DIQMTQSPSSLSASVGDRVTITCRSTKSLSHFNGNTYLFWYQQKPGKAPKRLIYYMSSLASGVPSRFSGSGSGTDFTLTISSLQPEDFATYYCQQSLEYPFTFGGGTKVEIK |  | binds | 
